Assay results reported in PMC8169937.
Results are given in words; binding and its absence hold for the method and conditions named. Binding seen in cells or lysates may run through a third protein. Some entries that bind do so weakly or less than the wild type.

The chains behind the UniProt entries cited, without tags or fusion partners.
UniProt O09106: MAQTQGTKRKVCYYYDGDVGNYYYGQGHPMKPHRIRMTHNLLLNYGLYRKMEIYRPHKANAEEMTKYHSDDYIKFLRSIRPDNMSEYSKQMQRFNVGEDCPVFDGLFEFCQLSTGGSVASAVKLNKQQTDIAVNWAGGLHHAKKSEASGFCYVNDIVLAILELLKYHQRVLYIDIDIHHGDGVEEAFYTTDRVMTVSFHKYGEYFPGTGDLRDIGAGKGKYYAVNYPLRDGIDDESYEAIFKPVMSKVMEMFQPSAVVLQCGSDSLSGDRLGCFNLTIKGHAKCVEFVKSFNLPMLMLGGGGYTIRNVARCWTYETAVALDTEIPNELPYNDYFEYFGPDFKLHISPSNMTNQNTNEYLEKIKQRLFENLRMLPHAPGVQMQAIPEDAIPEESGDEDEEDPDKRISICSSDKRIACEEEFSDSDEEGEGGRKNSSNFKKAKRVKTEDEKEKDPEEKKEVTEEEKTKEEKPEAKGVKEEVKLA
UniProt P70288: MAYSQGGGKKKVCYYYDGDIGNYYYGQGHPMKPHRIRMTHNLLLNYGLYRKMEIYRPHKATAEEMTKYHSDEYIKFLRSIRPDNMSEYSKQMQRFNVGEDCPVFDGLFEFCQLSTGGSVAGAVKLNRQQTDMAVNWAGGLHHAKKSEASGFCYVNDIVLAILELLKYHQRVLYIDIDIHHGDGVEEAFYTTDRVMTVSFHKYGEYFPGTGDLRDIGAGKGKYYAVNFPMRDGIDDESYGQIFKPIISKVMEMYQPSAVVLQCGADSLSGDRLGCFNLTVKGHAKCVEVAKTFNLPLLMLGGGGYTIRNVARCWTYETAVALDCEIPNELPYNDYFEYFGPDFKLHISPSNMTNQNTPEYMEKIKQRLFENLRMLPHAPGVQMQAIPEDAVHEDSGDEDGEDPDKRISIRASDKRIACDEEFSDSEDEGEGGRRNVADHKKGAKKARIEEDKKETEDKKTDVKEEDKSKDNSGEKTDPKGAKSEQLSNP

B1: terminal deoxynucleotidyltransferase-interacting factor 1 (TDIF1) (protein, UniProt Q99LB0 1-328)
chain: MGATGDTEQPRGPGGAERGGLELGDAGAAGQPVLTNPWNIMIKHRQVQRRGRRSQMTTSFTDPAISMDLLRAVLQPSINEEIQGVFNKYMKFFQKAALNVRDNVGEEVDAEQLIQEACRSCLEQAKLLFSDGEKVIPRLAHELPGIKRGRQAEEESHRGSPIPKKRKGRPPGHVLSNDRAAAGMVWKQKSCEPIRREGPKWDPARLNESTTFVLGSRANKALGMGGTRGRIYIKHPHLFKYAADPQDKHWLAEQHHMRATGGKMAYLLIEEDIRDLAASDDYRGCLDLKLEELKSFVLPSWMVEKMRKYMETLRTENEHRAAEAPPQT

The molecules below were run against T1, ZFP541 (mouse (endogenous in testis)) (UniProt Q0GGX2) (assay: co-IP; endogenous ZFP541 or KCTD19 immunoprecipitated with affinity-purified rabbit antibodies crosslinked to protein A-Dynabeads from chromatin extracts of WT mouse testes; beads washed with low salt extraction buffer; immunoblot).
T1 sequence: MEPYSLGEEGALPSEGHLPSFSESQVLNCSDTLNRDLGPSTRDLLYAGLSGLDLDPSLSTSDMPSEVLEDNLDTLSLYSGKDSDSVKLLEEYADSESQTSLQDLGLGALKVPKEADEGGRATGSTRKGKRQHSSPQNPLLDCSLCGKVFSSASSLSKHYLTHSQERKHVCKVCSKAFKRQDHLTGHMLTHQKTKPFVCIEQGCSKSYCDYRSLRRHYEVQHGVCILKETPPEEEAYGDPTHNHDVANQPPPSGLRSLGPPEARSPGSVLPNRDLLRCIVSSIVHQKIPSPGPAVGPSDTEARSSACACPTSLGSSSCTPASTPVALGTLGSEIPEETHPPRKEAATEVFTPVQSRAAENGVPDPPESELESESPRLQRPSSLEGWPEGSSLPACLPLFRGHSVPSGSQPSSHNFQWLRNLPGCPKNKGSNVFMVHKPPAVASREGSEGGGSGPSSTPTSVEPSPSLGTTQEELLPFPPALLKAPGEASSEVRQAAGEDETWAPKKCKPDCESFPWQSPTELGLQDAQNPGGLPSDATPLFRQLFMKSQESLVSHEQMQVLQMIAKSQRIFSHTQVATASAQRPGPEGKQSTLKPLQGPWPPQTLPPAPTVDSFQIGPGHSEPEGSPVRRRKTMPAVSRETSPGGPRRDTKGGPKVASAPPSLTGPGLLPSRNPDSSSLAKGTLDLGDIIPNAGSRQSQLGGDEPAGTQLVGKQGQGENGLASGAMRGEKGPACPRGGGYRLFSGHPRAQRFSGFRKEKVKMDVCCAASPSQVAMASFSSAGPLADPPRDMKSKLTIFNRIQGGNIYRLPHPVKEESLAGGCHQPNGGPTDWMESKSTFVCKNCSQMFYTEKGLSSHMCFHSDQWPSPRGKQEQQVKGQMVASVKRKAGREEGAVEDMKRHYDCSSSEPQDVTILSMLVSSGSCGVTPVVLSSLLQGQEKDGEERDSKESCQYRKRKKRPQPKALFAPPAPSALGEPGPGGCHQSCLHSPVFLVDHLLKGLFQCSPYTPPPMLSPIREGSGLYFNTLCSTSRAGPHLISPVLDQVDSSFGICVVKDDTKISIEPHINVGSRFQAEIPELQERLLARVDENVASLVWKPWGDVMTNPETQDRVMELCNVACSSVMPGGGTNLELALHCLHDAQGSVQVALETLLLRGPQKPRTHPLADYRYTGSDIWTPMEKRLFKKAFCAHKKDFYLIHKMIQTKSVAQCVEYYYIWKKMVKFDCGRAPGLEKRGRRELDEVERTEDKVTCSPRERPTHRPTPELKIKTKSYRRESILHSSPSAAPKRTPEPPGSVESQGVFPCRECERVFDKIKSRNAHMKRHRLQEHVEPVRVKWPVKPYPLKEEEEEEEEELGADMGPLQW

binding, binds:
HDAC1 (from UniProt O09106 1-482) (enzyme)
HDAC2 (from UniProt P70288 1-488) (enzyme)
B1
